PubChem BioAssay AID743454 | Peter MacCallum Cancer Centre, 2014
The deposit covers about 18,000 reagents; shown is a part drawn at random. In the full data, 450 (2.5%) were called active. 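Single biological run; no consistent viability z cut-off exists, so the class columns, not z-scores, define the calls.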

Assay: 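Genes whose loss kills vorinostat-resistant colon cancer cells under vorinostat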 (primary screen)
System: human HCT116-VR colon cancer cells, selected for vorinostat resistance
Knock-down reagent: siRNA pool against human genes, 40 nM siRNA pool
Time to read-out: vorinostat for 24 h, read-out about 72 h after transfection
Conditions: vorinostat at 2.5 µM final
Read-out: 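Cell viability by CellTiter-Fluor and caspase 3/7 activity by luminescence, each scaled to mock wells per plate, duplicates averaged, then robust z-scored over all plates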
Scale: viability robust z-score: higher = more viable cells than screen typical; caspase robust z-score: higher = more caspase 3/7 activity than screen typical
Call rule: 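a knock-down is a hit when classed RV1 or RV2 for lowered viability, or CA1 or CA2 for caspase activation; those lethal without drug were dropped; hits were retested singly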

Silencing of TOR1B (GeneID 27348) gave: viability hit class no change; caspase hit class no change; viability robust z-score 0.01; caspase robust z-score -0.19; inactive.
For ESCO2 (GeneID 157570), the entry reads viability hit class no change; caspase hit class no change; viability robust z-score 0.3; caspase robust z-score -0.36; inactive.
For CBX6 (GeneID 23466), the values are viability hit class no change; caspase hit class no change; viability robust z-score -0.24; caspase robust z-score 1.97; inactive.
After knock-down of HOXD4 (GeneID 3233) the results were viability hit class no change; caspase hit class no change; viability robust z-score 1.27; caspase robust z-score -0.44; inactive.
With knock-down of OR10K2 (GeneID 391107), the record shows viability hit class no change; caspase hit class no change; viability robust z-score 0.5; caspase robust z-score 0.52; inactive.
With knock-down of ZNF20 (GeneID 7568) the results were viability hit class no change; caspase hit class no change; viability robust z-score -0.44; caspase robust z-score -0.68; inactive.
TBCCD1 (GeneID 55171) showed viability hit class no change; caspase hit class no change; viability robust z-score 1.61; caspase robust z-score 1.31; inactive.
SPIN2A (GeneID 54466) scored viability hit class no change; caspase hit class no change; viability robust z-score 0.74; caspase robust z-score -1.28; inactive.
Silencing of TSPAN14 (GeneID 81619) came out at: viability hit class no change; caspase hit class no change; viability robust z-score 1.04; caspase robust z-score 1.21; inactive.
FANCD2 (GeneID 2177) scored viability hit class no change; caspase hit class no change; viability robust z-score -0.72; caspase robust z-score -0.48; inactive.
With knock-down of GAN (GeneID 8139) the results were viability hit class no change; caspase hit class no change; viability robust z-score -0.48; caspase robust z-score -0.48; inactive.
After knock-down of TMEM108 (GeneID 66000), the record shows viability hit class no change; caspase hit class no change; viability robust z-score 0.2; caspase robust z-score -0.86; inactive.
TMEM40 (GeneID 55287) showed viability hit class no change; caspase hit class no change; viability robust z-score 0.05; caspase robust z-score 0.36; inactive.
Knock-down of ZNF347 (GeneID 84671) resulted in: viability hit class no change; caspase hit class no change; viability robust z-score 1.79; caspase robust z-score 0.12; inactive.
For RIMOC1 (GeneID 285636) the deposit lists viability hit class no change; caspase hit class no change; viability robust z-score -1.4; caspase robust z-score -0.78; inactive.
BRPF3 (GeneID 27154) scored viability hit class no change; caspase hit class no change; viability robust z-score 1.34; caspase robust z-score -0.29; inactive.
Depletion of ATP5MC3 (GeneID 518) gave: viability hit class no change; caspase hit class no change; viability robust z-score 1.45; caspase robust z-score -0.15; inactive.
For BRD7 (GeneID 29117) the deposit lists viability hit class no change; caspase hit class no change; viability robust z-score -0.83; caspase robust z-score -0.46; inactive.
Knock-down of FANK1 (GeneID 92565) came out at: viability hit class no change; caspase hit class no change; viability robust z-score -1.23; caspase robust z-score 0.16; inactive.
Knock-down of OR13A1 (GeneID 79290) came out at: viability hit class no change; caspase hit class no change; viability robust z-score 1.36; caspase robust z-score 0.17; inactive.
After knock-down of F9 (GeneID 2158), the screen gave viability hit class no change; caspase hit class no change; viability robust z-score 1.36; caspase robust z-score -0.4; inactive.

Reformatted: 2 of the entries above.
gene | viability hit class | caspase hit class | viability robust z-score | caspase robust z-score | call
TOR1B (GeneID 27348) | no change | no change | 0.01 | -0.19 | inactive
ESCO2 (GeneID 157570) | no change | no change | 0.3 | -0.36 | inactive
